Measurements published in PubChem BioAssay AID2685 (National Center for Advancing Translational Sciences (NCATS), 2010).
In all, about 320,000 compounds went through this assay and about 2,100 (0.66%) were called active. This list was built around the results that the source calls inconclusive (neither active nor inactive); the mix of calls is not that of the screen. The call rests on the fitted dose curve; in most records, active means well fitted inhibition curve with a large enough effect in the signal ratio, with a control signal flat (not every such curve was filed as active); inconclusive means small, poorly fitted or top-dose-only effect, or effect the other way, or a change in a side signal; inactive means flat fitted curve, though single readings scatter; the % refers to the signal ratio. A potency beside an inconclusive call is a rough fit, not a confirmed value.

Assay: qHTS Assay for Lipid Storage Modulators in Drosophila S3 Cells
Conditions: BODIPY lipid droplet fluorescence, 18-24 h, cells fed with added oleic acid; lipid storage change, negative = inhibition: at 46.1 µM (top of the series) unless noted
Procedure, shortened: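 Laser-scanning cytometry quantifies lipid droplet accumulation (500–530 nm total intensity; droplet/cell object ratio) in oleic acid-fed (400 uM added) Drosophila S3 cells treated with a concentration series. 20 uM Triacsin C defined 100% inhibition.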
On the % scale 0 is the no-effect control and ±100 the full control effect; potency means the concentration at half of the fitted maximal effect.

Lipid storage change, negative = inhibition, inactive:
COc1ccccc1Nc1nnc(SCC(=O)c2cc(C)n(CC3CCCO3)c2C)s1 (configuration not stated) 26%

Lipid storage change, negative = inhibition, inconclusive:
CCCNC(=S)N1CCC(Cc2ccccc2)CC1 13.1%, CCOc1ccccc1NC1c2ccccc2C(=O)N1Cc1ccco1 (configuration not stated) 33%, Cc1cc(C)cc(Nc2nc(-c3ccc(S(=O)(=O)N4CCCC4)cc3)cs2)c1 12.1%, Cc1n[nH]c(C)c1CCCCOc1ccccc1[N+](=O)[O-] -67.5%, Cc1cccc(N(CC(=O)Nc2c(C)n(C)n(-c3ccccc3)c2=O)S(C)(=O)=O)c1C -122%, COc1ccc(CCN2CC(C(=O)N3CCC(OC)CC3)CCC2=O)cc1 (configuration not stated) -16.1%, O=C(N/N=C/c1ccc([N+](=O)[O-])o1)c1cn(-c2ccccc2)nc1-c1ccccc1 -15.4%, CN(c1ccc(C(=O)Nc2cccnc2)cc1)S(=O)(=O)c1ccc(Cl)cc1 -24.7%, COc1ccc(OC)c(S(=O)(=O)Nc2ccc(-c3ccc4nncn4n3)cc2)c1, COc1ccccc1C(=O)Nc1nnc(-c2ccccc2)s1 -53.2%, CN1CCN(S(=O)(=O)c2cccc(C(=O)Nc3sccc3C#N)c2)CC1 36.5%, COc1ccc(C2C(C#N)=C(N)OC(C(C)(C)C)=C2C#N)cc1OC (configuration not stated) 16.1%, Cc1ccc(N(C(=O)c2snc(C(N)=O)c2N)C(C(=O)NCC2CCCO2)c2ccc(C)o2)c(C)c1 (configuration not stated) 11.8%, CC1CCCC(NC(=O)c2cccc(S(=O)(=O)NCc3ccccc3)c2)C1C (configuration not stated) 3.14%, CCOc1ccccc1NC(=O)NNS(=O)(=O)c1cc(C)ccc1C 19.4%, O=S(=O)(NCc1csc(-c2ccccc2)n1)c1ccc(Cl)s1 -25.4%

Potency, active:
CN1CCN(c2ccccc2NC(=O)c2ccc(-c3ccccc3[N+](=O)[O-])o2)CC1 6.51 µM, O=C1Nc2ccc(Cl)cc2C(C#CC2CC2)(C(F)(F)F)O1 (configuration not stated) 9.2 µM

Potency, inconclusive:
COc1ccc(S(=O)(=O)N2CCN(C(=O)NCc3ccc(OC)c(OC)c3)CC2)cc1 29.1 µM [activator, single point], CC1=C(C(=O)OCc2ccccc2)C(c2ccccc2[N+](=O)[O-])NC(=O)N1C (configuration not stated) 6.51 µM [activator, single point], O=C(CSc1ncccc1-c1nc2ccccc2[nH]1)N1CCN(c2ccccc2F)CC1 0.411 µM [activator, full curve]
